Results: the supplement of paper PMC7661543
± gives the standard deviation of the averaged measurements. Differences between knockout arms are mostly noise.

Test system: HCC-38
Test: relative cell number vs DMSO control (72 h) (% of DMSO); higher = less growth inhibition (more cells)
Protocol: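 QMAP-Seq: a pool of 5 breast cancer cell lines (ZR-75-1, SKBR3, HCC-38, MDA-MB-231, BT-20), each carrying 12 doxycycline-inducible Cas9 sgRNA perturbations (11 knockouts plus non-targeting sgNT), was treated with compounds for 72 h at four 10-fold doses (10 nM-10 uM or 1 nM-1 uM range). Barcodes were amplified and sequenced, and cell number was interpolated from 293T spike-in standard curves. The result is expressed as % of the median of DMSO wells. Two biological replicates.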

[1] = sgRNA knockout: sgATF3, 1000 nM
[2] = sgRNA knockout: sgATF3, 10000 nM
[3] = sgRNA knockout: sgATF4, 1000 nM
[4] = sgRNA knockout: sgATF4, 10000 nM
[5] = sgRNA knockout: sgATF6, 1000 nM
[6] = sgRNA knockout: sgATF6, 10000 nM
[7] = sgRNA knockout: sgATG7, 1000 nM
[8] = sgRNA knockout: sgATG7, 10000 nM
[9] = sgRNA knockout: sgERN1, 1000 nM
[10] = sgRNA knockout: sgERN1, 10000 nM
[11] = sgRNA knockout: sgHSF1, 1000 nM
[12] = sgRNA knockout: sgHSF1, 10000 nM
[13] = sgRNA knockout: sgHSF2, 1000 nM
[14] = sgRNA knockout: sgHSF2, 10000 nM
[15] = sgRNA knockout: sgKEAP1, 100 nM
[16] = sgRNA knockout: sgKEAP1, 1000 nM
[17] = sgRNA knockout: sgKEAP1, 10000 nM
[18] = sgRNA knockout: sgNFE2L2, 10 nM
[19] = sgRNA knockout: sgNFE2L2, 100 nM
[20] = sgRNA knockout: sgNFE2L2, 1000 nM
[21] = sgRNA knockout: sgNFE2L2, 10000 nM
[22] = sgRNA knockout: sgSLC35F2, 10 nM
[23] = sgRNA knockout: sgSLC35F2, 100 nM
[24] = sgRNA knockout: sgSLC35F2, 1000 nM
[25] = sgRNA knockout: sgSLC35F2, 10000 nM
[26] = sgRNA knockout: sgXBP1, 1000 nM
[27] = sgRNA knockout: sgXBP1, 10000 nM

CN(Cc1cnc2nc(N)nc(N)c2n1)c1ccc(C(=O)N[C@@H](CCC(=O)O)C(=O)O)cc1 [Methotrexate]
relative cell number (sgRNA knockout: sgATF3, 10 nM): 103 ± 5.5
relative cell number (sgRNA knockout: sgATF3, 100 nM): 55.4 ± 3.6
relative cell number [1]: 38.2 ± 1.2
relative cell number [2]: 33.6 ± 5.6
relative cell number (sgRNA knockout: sgATF4, 10 nM): 92.9 ± 4
relative cell number (sgRNA knockout: sgATF4, 100 nM): 55.78 ± 0.41
relative cell number [3]: 43.1 ± 5.6
relative cell number [4]: 29.7 ± 0.78
relative cell number (sgRNA knockout: sgATF6, 10 nM): 89.7 ± 6.8
relative cell number (sgRNA knockout: sgATF6, 100 nM): 60.595 ± 0.015
relative cell number [5]: 43.57 ± 0.19
relative cell number [6]: 36.5 ± 3.5
relative cell number (sgRNA knockout: sgATG7, 10 nM): 105 ± 11
relative cell number (sgRNA knockout: sgATG7, 100 nM): 55.3 ± 8.5
relative cell number [7]: 40.2 ± 2.4
relative cell number [8]: 28.6 ± 2.2
relative cell number (sgRNA knockout: sgERN1, 10 nM): 107 ± 8.7
relative cell number (sgRNA knockout: sgERN1, 100 nM): 55.7 ± 5.3
relative cell number [9]: 40.2 ± 1.9
relative cell number [10]: 31.8 ± 0.5
relative cell number (sgRNA knockout: sgHSF1, 10 nM): 111 ± 11
relative cell number (sgRNA knockout: sgHSF1, 100 nM): 53.4 ± 3.5
relative cell number [11]: 52.3 ± 11
relative cell number [12]: 35.8 ± 7.4
relative cell number (sgRNA knockout: sgHSF2, 10 nM): 110 ± 3.5
relative cell number (sgRNA knockout: sgHSF2, 100 nM): 52 ± 1.4
relative cell number [13]: 44.1 ± 1.8
relative cell number [14]: 34.2 ± 0.58
relative cell number (sgRNA knockout: sgKEAP1, 10 nM): 101 ± 16
relative cell number [15]: 71 ± 17
relative cell number [16]: 42.2 ± 1
relative cell number [17]: 38.7 ± 2.3
relative cell number [18]: 100 ± 1.4
relative cell number [19]: 52.8 ± 6.3
relative cell number [20]: 36.2 ± 0.81
relative cell number [21]: 29.81 ± 0.14
relative cell number [22]: 101 ± 3
relative cell number [23]: 51.5 ± 4.1
relative cell number [24]: 40.6 ± 8.7
relative cell number [25]: 32 ± 1.2
relative cell number (sgRNA knockout: sgXBP1, 10 nM): 97.5 ± 3.5
relative cell number (sgRNA knockout: sgXBP1, 100 nM): 55.9 ± 2
relative cell number [26]: 39.8 ± 4
relative cell number [27]: 32.4 ± 0.9

S=c1nc[nH]c2nc[nH]c12 [6-Mercaptopurine]
relative cell number (sgRNA knockout: sgATF3, 10 nM): 93.8 ± 5.5
relative cell number (sgRNA knockout: sgATF3, 100 nM): 97.2 ± 3.4
relative cell number [1]: 83.2 ± 4.8
relative cell number [2]: 68 ± 3.4
relative cell number (sgRNA knockout: sgATF4, 10 nM): 86.8 ± 2.5
relative cell number (sgRNA knockout: sgATF4, 100 nM): 113 ± 17
relative cell number [3]: 82.7 ± 7.4
relative cell number [4]: 63.2 ± 7.3
relative cell number (sgRNA knockout: sgATF6, 10 nM): 109 ± 12
relative cell number (sgRNA knockout: sgATF6, 100 nM): 80.4 ± 12
relative cell number [5]: 91.6 ± 5.6
relative cell number [6]: 68 ± 1.6
relative cell number (sgRNA knockout: sgATG7, 10 nM): 94.2 ± 1.7
relative cell number (sgRNA knockout: sgATG7, 100 nM): 98.6 ± 2.8
relative cell number [7]: 83 ± 5.3
relative cell number [8]: 63.4 ± 1.4
relative cell number (sgRNA knockout: sgERN1, 10 nM): 102 ± 14
relative cell number (sgRNA knockout: sgERN1, 100 nM): 98.91 ± 0.14
relative cell number [9]: 79.8 ± 6
relative cell number [10]: 70.4 ± 2.8
relative cell number (sgRNA knockout: sgHSF1, 10 nM): 114 ± 17
relative cell number (sgRNA knockout: sgHSF1, 100 nM): 94.4 ± 7
relative cell number [11]: 82.8 ± 11
relative cell number [12]: 87.3 ± 3.3
relative cell number (sgRNA knockout: sgHSF2, 10 nM): 101 ± 19
relative cell number (sgRNA knockout: sgHSF2, 100 nM): 103 ± 10
relative cell number [13]: 91.2 ± 3.6
relative cell number [14]: 80.4 ± 8.1
relative cell number (sgRNA knockout: sgKEAP1, 10 nM): 103 ± 22
relative cell number [15]: 85.6 ± 10
relative cell number [16]: 77.7 ± 14
relative cell number [17]: 77 ± 27
relative cell number [18]: 88.17 ± 0.87
relative cell number [19]: 89.2 ± 3.5
relative cell number [20]: 83.1 ± 7.3
relative cell number [21]: 66.1 ± 2.9
relative cell number [22]: 95.6 ± 5.1
relative cell number [23]: 101 ± 7.8
relative cell number [24]: 83.6 ± 3.1
relative cell number [25]: 66.2 ± 3.9
relative cell number (sgRNA knockout: sgXBP1, 10 nM): 89.9 ± 6.9
relative cell number (sgRNA knockout: sgXBP1, 100 nM): 93.7 ± 2.7
relative cell number [26]: 83 ± 5.5
relative cell number [27]: 69.2 ± 3.5
